Source: paper PMC5602674
Results are given in words; binding and its absence hold for the method and conditions named. In cells and extracts the contact can be indirect. Each block holds one molecule with its values, some of them ahead of it.

Amino acid sequences for entries named in this document (tags omitted).
UniProt P23772: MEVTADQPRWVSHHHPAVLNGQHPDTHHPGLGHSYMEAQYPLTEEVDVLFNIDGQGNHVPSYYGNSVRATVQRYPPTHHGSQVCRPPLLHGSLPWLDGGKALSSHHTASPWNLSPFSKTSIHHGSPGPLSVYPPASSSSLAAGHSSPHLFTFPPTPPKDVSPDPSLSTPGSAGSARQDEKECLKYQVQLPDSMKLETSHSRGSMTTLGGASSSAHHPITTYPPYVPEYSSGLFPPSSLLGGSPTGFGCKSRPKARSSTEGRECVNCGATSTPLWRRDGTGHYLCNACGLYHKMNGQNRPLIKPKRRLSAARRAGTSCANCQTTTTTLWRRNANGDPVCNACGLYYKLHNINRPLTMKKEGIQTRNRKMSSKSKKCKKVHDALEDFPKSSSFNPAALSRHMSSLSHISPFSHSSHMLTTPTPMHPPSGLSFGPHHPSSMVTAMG

Biological target: p62 (mouse (endogenous in TH9 cells)) (UniProt Q64337)
Experiment: proximity ligation; Duolink in situ PLA on fixed, permeabilised TH9 cells after 24 h of differentiation; endogenous proteins; control antibodies gave no foci

binding: no binding
Molecule: GATA-3 (from UniProt P23772 1-443)

binding: no binding
B1: Stat6 (protein, UniProt P52633 1-837)
chain: MSLWGLISKMSPEKLQRLYVDFPQRLRHLLADWLESQPWEFLVGSDAFCYNMASALLSATVQRLQATAGEQGKGNSILPHISTLESIYQRDPLKLVATIRQILQGEKKAVIEEFRHLPGPFHRKQEELKFTTALGRLQHRVRETRLLRESLQQGAKTGQVSLQNLIDPPVNGPGPSEDLATMLQGTVGDLEATQALVLKRIQIWKRQQQLAGNGTPFEESLAGLQERCESLVEIYSQLQQEIGAASGELEPKTRASLISRLDEVLRTLVTSSFLVEKQPPQVLKTQTKFQAGVRFLLGLQFLGTSAKPPMVRADMVTEKQARELSLAQGPGTGVESTGEIMNNTVPLENSIPSNCCSALFKNLLLKKIKRCERKGTESVTEEKCAVLFSTSFTLGPNKLLIQLQALSLPLVVIVHGNQDNNAKATILWDNAFSEMDRVPFVVAERVPWEKMCETLNLKFMAEVGTSRGLLPEHFLFLAQKIFNDNSLSVEAFQHRCVSWSQFNKEILLGRGFTFWQWFDGVLDLTKRCLRSYWSDRLIIGFISKQYVTSLLLNEPDGTFLLRFSDSEIGGITIAHVIRGQDGSSQIENIQPFSAKDLSIRSLGDRIRDLAQLKNLYPKKPKDEAFRSHYKPEQMGKDGRGYVSTTIKMTVERDQPLPTPEPQMPAMVPPYDLGMAPDASMQLSSDMGYPPQSIHSFQSLEESMSVLPSFQEPHLQMPPNMSQITMPFDQPHPQGLLQCQSQEHAVSSPEPMLCSDVTMVEDSCLTQPVGGFPQGTWVSEDMYPPLMPPTEQDLTKLLLENQGEAGGSLGSQPLLQPSPYGQSGISLSHLDLRTNPSW
